Assay results taken from US20190027771A1, “ACID GAS REGENERABLE BATTERY” (Commonwealth Scientific and Industrial Research Organisation, priority 2015, published 2019).

Tests used:
[1] = Power generation performance of electrochemical cell with different amines, Cu/Cu^2+ as the redox couple; details: 2M amines, 0.1 M Cu(II); for CO2 loading in cathode: CO2-loaded catholyte, room temperature (20-22° C.); for CO2 loading in cathode / Open circuit potential: 1 M NH4NO3 or 1 M KNO3; for Measured maximum power density / Open circuit potential: Cu/Cu^2+, 20-22° C.; for Measured maximum power density: calculated based on the effective membrane area; for Open circuit potential: catholyte CO2-loaded, anolyte non CO2-loaded
[2] = addition of Me(II) ions in ammonia based electrolytes; suppression order Ni(II)>Cu(II)>Zn(II); cited from earlier work

| Compound | CO2 loading in cathode [1] | Measured maximum power density [1] [W/m^2] | Open circuit potential [1] [v] | Ammonia loss in absorption and regeneration processes [2] |
| --- | --- | --- | --- | --- |
| CNCC(=O)O [Sarcosine] | 0.48 | 0.52 | 0.145 | – |
| OCCNCCO [Diethanolamine] | 0.55 | 1.56 | 0.14 | – |
| Pyrrolidine | 0.61 | 1.05 | 0.2 | – |
| CCCN [Propylamine] | 0.61 | 3.52 | 0.22 | – |
| CC(N)(CO)CO [2-amino-2-methyl-1 3-propanediol, 2-amino-2-methyl-1 3-propanediol] | 0.63 | 1.25 | 0.14 | – |
| C1CNCCN1 [Piperazine] | 0.84 | 2.88 | 0.21 | – |
| NCC(=O)O [Glycine] | 0.50 | 1.21 | 0.144 | – |
| NCCO [Ethanolamine] | 0.49 | 2.17 | 0.214 | – |
| N=C(N)NCCC[C@H](N)C(=O)O [L-Arginine] | 1.28 | 0.15 | 0.09 | – |
| O=C(O)[C@@H]1CCCN1 [L-Proline] | 0.59 | 0.91 | 0.182 | – |
| CC(O)CNCC(C)O (stereo not drawn) [bis(2-hydroxypropyl)-amine, bis(2-hydroxypropyl)amine] | 0.47 | 0.76 | 0.12 | – |
| CCCCN [Butylamine] | 0.5 | 2.37 | 0.19 | – |
| [Cu+2] [Cu^2+] | – | – | – | significantly reduced ammonia loss |
| [Ni+2] [Ni^2+] | – | – | – | significantly reduced ammonia loss |
| NCCCn1ccnc1 [1-(3-aminopropyl)-imidazole, 1-(3-aminopropyl)imidazole] | 0.75 | 0.81 | 0.12 | – |
| C[C@@H](O)[C@H](N)C(=O)O [L-Threonine] | 0.45 | 0.79 | 0.096 | – |

| Compound | CO2 loading in cathode [1] | Measured maximum power density [1] [W/m^2] | Open circuit potential [1] [v] | Ammonia loss in absorption and regeneration processes [2] |
| --- | --- | --- | --- | --- |
| NCc1cccc(CN)c1 [m-Xylylenediamine] | 0.81 | 4.20 | 0.28 | – |
| C[C@H](N)C(=O)O [L-Alanine] | 0.51 | 1.48 | 0.20 | – |
| [Zn+2] [Zn^2+] | – | – | – | significantly reduced ammonia loss |
| N[C@@H](CO)C(=O)O [L-Serine] | 0.48 | 0.49 | 0.092 | – |
| CN(C)CCCN [3-(dimethylamino)-1-propylamine, 3-(dimethylamino)-1-propylamine] | 1.03 | 2.6 | 0.21 | – |
| NCCOCCO [2-(2-Aminoethoxy)-ethanol, 2-(2-Aminoethoxy)ethanol] | 0.52 | 3.34 | 0.22 | – |
| N [Ammonia] | 0.5 | 0.96 | 0.09 | – |
| NCCCCCCN [hexamethylenediamine] | 1.1 | 2.88 | 0.24 | – |
| CCCCCN [Amylamine] | 0.5 | 4.83 | 0.27 | – |
| NCCN [Ethylenediamine] | 0.96 | 2.93 | 0.24 | – |
| NCCCCCO [5-Amino-1-pentanol] | 0.56 | 2.82 | 0.218 | – |
| 3-Amino-1-propanol | 0.64 | 2.73 | 0.268 | – |
| 1,3 Diaminopropane | 1.0 | 3.23 | 0.25 | – |
| CC1CCNCC1 [4-methylpiperidine] | 0.56 | 0.91 | 0.13 | – |
| N[C@@H](CCC(=O)O)C(=O)O [Glutamic acid] | 0.28 | 0.27 | 0.11 | – |

Some entries repeat one wording, which the source may state once for all of them.
